From PubChem BioAssay AID1487 (National Center for Advancing Translational Sciences (NCATS), 2009)
The list shows a part of the results. Further columns of the screen follow, without active or inactive calls. Most of these compounds were active or inconclusive in the main read-out, so they are no random draw. The note in brackets gives the kind of curve behind each potency; many fits are weak.

Experiment: qHTS Assay for Modulators of Lamin A Splicing
Details: HeLa LMNA splicing GFP/RFP minigene ratio, 48 h
In short: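 S3 HeLa stable clones carrying a lamin A-EGFP splicing minigene plus DsRed2 were seeded at 600 cells/well in Opti-MEM with 2% FBS, pin-dosed and incubated 48 h at 37°C. Acumen cytometry (488 nm) gave the GFP/RFP total-intensity ratio.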

[1] = measured here: GFP splicing reporter channel
[2] = measured here: RFP viability control channel

In the case of `CCc1ccccc1NC(=O)CCNS(=O)(=O)c1ccc2c(c1)CCN2C(=O)C1CC1`, the AC50 [1] is reported as 10 µM [falling, partial curve] and the AC50 [2] is reported as 25.1 µM [falling, single point].

For `COC(=O)c1c(C)oc2ccc(N(C(=O)Oc3ccccc3)S(=O)(=O)c3ccccc3)cc12`, the AC50 [2] was 22.4 µM [rising, single point].

With `Cc1cccc(C2=NC(C(F)(F)F)(C(F)(F)F)c3c(n(-c4ccc(F)cc4)c(=O)[nH]c3=O)N2)c1` the AC50 [1] was 0.1 µM [rising, full curve, poor fit] and the AC50 [2] was 0.112 µM [rising, full curve].

With `CSC(=Nc1ccc(Cl)cc1)N[n+]1ccccc1` the AC50 [1] was 0.355 µM [rising, full curve, poor fit].

In the case of `CN1CCC(N(C)C(=O)CCc2nc3ccccc3c(=O)[nH]2)CC1`, the AC50 [1] is reported as 1.26 µM [falling, single point].

In the case of `O=c1cc(O)cc(/C=C/c2ccc(O)c(O)c2)o1`, the AC50 [2] is reported as 0.00501 µM [falling, full curve, poor fit].

In the case of `Cc1ccc2c(c1)c1c(n2CC(O)Cn2c(C)nc3ccccc32)/C(=N\O)CCC1` (stereo not drawn), the AC50 [1] is reported as 35.5 µM [falling, single point].

For `CCn1c2ccccc2c2cc(/C=N/NC(=O)c3cccc(C)c3)ccc21`, the AC50 [2] was 17.8 µM [rising, single point].

In the case of `Cc1nc(C)c(C(=O)NNS(=O)(=O)c2ccc3ccccc3c2)s1`, the AC50 [2] is reported as 3.55 µM [rising, full curve].

For `COCc1cc(N2CCOCC2)nc(SCc2ccc(Cl)cc2)n1`, the AC50 [1] was 35.5 µM [rising, single point] and the AC50 [2] was 31.6 µM [rising, single point].

With `Brc1ccc2ncnc(NCc3ccccc3)c2c1` the AC50 [2] was 17.8 µM [rising, single point].

In the case of `CC(=O)c1c(C)[nH]c(C(=O)CSc2nnc(N)s2)c1C`, the AC50 [1] is reported as 3.16 µM [falling, full curve] and the AC50 [2] is reported as 2.82 µM [falling, full curve].

With `COc1cc(OC)c(NS(=O)(=O)c2cc(-c3cnc(C)o3)ccc2OC)cc1Cl` the AC50 [1] was 3.16 µM [rising, partial curve] and the AC50 [2] was 5.01 µM [rising, partial curve].

For `Cc1ccccc1C(=O)Nc1ccc2c(C#N)c3nc4ccccc4nc3n2c1`, the AC50 [2] was 6.31 µM [rising, partial curve, poor fit].

With `COc1ccc(-c2cc(C(=O)O)nc3ccc4ccccc4c23)cc1OC` the AC50 [1] was 0.631 µM [rising, full curve, poor fit].

For `CCCc1ccc(OCC(=O)NNC(=S)NC(=O)c2ccco2)cc1`, the AC50 [2] was 20 µM [rising, single point].

For `O=C(Cn1c2c(sc1=O)C1c3ccccc3OCC1CS2)Nc1ccc(Cl)c(Cl)c1` (stereo not drawn), the AC50 [2] was 7.08 µM [rising, partial curve].

With `Cc1cc(NC2CCCCC2)nc2ccccc12` the AC50 [2] was 31.6 µM [rising, single point].

For `COc1ccc2oc(C(=O)OCC(=O)c3ccc4c(c3)OCCO4)c(C)c2c1`, the AC50 [2] was 10 µM [rising, partial curve, poor fit].

With `Cc1cccc(N=C2NC(=O)/C(=C/c3cn(C)c4ccccc34)S2)c1` the AC50 [2] was 35.5 µM [rising, single point].

With `C(=C\c1ccccc1)/CSc1nnc(-c2ccccc2)n1Cc1ccco1` the AC50 [1] was 7.08 µM [falling, partial curve] and the AC50 [2] was 7.94 µM [falling, partial curve].

For `CCOc1ccc(-c2nc(S(=O)(=O)c3ccccc3)c(N3CCOCC3)o2)cc1`, the AC50 [1] was 0.0141 µM [rising, full curve, poor fit] and the AC50 [2] was 0.0178 µM [rising, full curve, poor fit].

In the case of `CNC(CC(=O)c1ccc([N+](=O)[O-])cc1)C(Cl)(Cl)Cl` (stereo not drawn), the AC50 [1] is reported as 35.5 µM [falling, single point].

In the case of `COC(=O)c1scc(-c2ccc(C)cc2)c1S(=O)(=O)N1CCN(c2ccc(OC)cc2)CC1`, the AC50 [1] is reported as 0.00891 µM [falling, full curve, poor fit].

In the case of `CCNC(=O)NC(=O)C(C)OC(=O)c1oc2ccccc2c1CSC1CCCCC1` (stereo not drawn), the AC50 [2] is reported as 6.31 µM [falling, single point].

With `Cc1oc2ccc(O)c(CN(C)C)c2c1C(=O)c1ccccc1` the AC50 [1] was 0.0398 µM [rising, full curve, poor fit] and the AC50 [2] was 0.0224 µM [rising, full curve, poor fit].

In the case of `O=C(CN(CC1CCCO1)C(=O)CCC(=O)Nc1nccs1)NCC1CCCO1` (stereo not drawn), the AC50 [2] is reported as 0.2 µM [rising, partial curve, poor fit].

For `COc1ccc(Cl)c(Cn2c(NCc3ccco3)nc3c2c(=O)n(C)c(=O)n3C)c1`, the AC50 [2] was 22.4 µM [rising, single point].

In the case of `O=C(N/N=C/C(Cl)=C/c1ccccc1)c1cnccn1`, the AC50 [1] is reported as 0.631 µM [falling, single point].

In the case of `CCOc1ccccc1C(=O)Nc1ccsc1C(=O)OC`, the AC50 [2] is reported as 7.94 µM [rising, partial curve].

In the case of `O=C(NN=C1CCCCCCCCCCC1)c1cccc(S(=O)(=O)N2CCOCC2)c1`, the AC50 [1] is reported as 0.282 µM [rising, full curve, poor fit].

For `COc1ccc(NC(=O)c2sc3nc4n(c(=O)c3c2C)CCC4)cc1Cl`, the AC50 [1] was 39.8 µM [rising, partial curve, poor fit].

With `C=CCN1C(=O)/C(=c2\sc3nc(=O)c(Cc4ccccc4Cl)nn3c2=O)c2ccccc21` the AC50 [1] was 0.00891 µM [rising, full curve, poor fit] and the AC50 [2] was 0.00447 µM [rising, full curve, poor fit].

In the case of `Cn1c(=O)n(CC(=O)N2CCN(c3nnc(-c4ccccc4)c4ccccc34)CC2)c2ccccc21`, the AC50 [2] is reported as 11.2 µM [rising, partial curve].

With `CCOc1ccc(CCNC(=O)COC(=O)c2ccccc2O)cc1OCC` the AC50 [1] was 0.282 µM [falling, full curve, poor fit] and the AC50 [2] was 0.282 µM [falling, full curve, poor fit].

For `O=C(NCc1ccc(Cl)cc1)c1cnc2sc(N3CCCC3)nn2c1=O`, the AC50 [1] was 0.0224 µM [falling, full curve, poor fit].

For `Cc1cccc(Nc2ccccc2C(=O)NCc2ccco2)c1C`, the AC50 [1] was 22.4 µM [falling, single point] and the AC50 [2] was 20 µM [falling, partial curve].

For `CCOc1ccc(C(c2c(O)cc(C)n(CCOC)c2=O)N2CCC(C)CC2)cc1` (stereo not drawn), the AC50 [1] was 0.708 µM [rising, full curve, poor fit].

With `COc1cccc(OC)c1OCCCOc1ccc(C)cc1Br` the AC50 [2] was 12.6 µM [rising, partial curve, poor fit].

For `C/C(CCc1ccccc1)=N\NC(=O)C1C2CCCCC21` (stereo not drawn), the AC50 [2] was 20 µM [falling, partial curve, poor fit].

For `CCC(=O)N(CCN1CCOCC1)Cc1cc2cc3c(cc2nc1Cl)OCO3`, the AC50 [2] was 11.2 µM [falling, single point].

In the case of `Cc1ccc(Cl)cc1NC(=S)N(Cc1ccccc1)Cc1cccnc1`, the AC50 [1] is reported as 14.1 µM [falling, single point].

For `NC1=NC2(CCCCC2)N(c2ccc(F)cc2F)C(N)=N1`, the AC50 [1] was 3.16 µM [falling, partial curve] and the AC50 [2] was 6.31 µM [falling, single point].

In the case of `COc1ccc(CNC(=O)/C=C/c2ccc(S(=O)(=O)NCc3ccco3)cc2)cc1OC`, the AC50 [2] is reported as 20 µM [rising, partial curve].

For `COc1ccc(N=C2NN=C(c3c(C)[nH]c4ccccc34)CS2)cc1`, the AC50 [1] was 1.26 µM [rising, partial curve, poor fit].

For `O=c1[nH]c(=O)n(Cc2ccco2)c2c1C(C(F)(F)F)(C(F)(F)F)N=C(c1ccc(F)cc1)N2`, the AC50 [2] was 1.41 µM [rising, partial curve].

With `C=CCn1c(COc2ccc(Cl)cc2)nnc1SCc1ccc(C#N)cc1` the AC50 [1] was 12.6 µM [rising, single point] and the AC50 [2] was 35.5 µM [rising, single point].

In the case of `Oc1ccc(Cl)cc1/C=C/c1ccc2cccc(O)c2n1`, the AC50 [2] is reported as 25.1 µM [rising, single point].

For `Cc1ccc(Cl)cc1NC(=O)CC(O)(C(F)(F)F)C(F)(F)F`, the AC50 [1] was 20 µM [rising, single point] and the AC50 [2] was 35.5 µM [rising, single point].

With `CC(=O)c1ccc(OCCCC(=O)N2CCN(S(=O)(=O)c3cccs3)CC2)cc1` the AC50 [1] was 10 µM [rising, partial curve, poor fit] and the AC50 [2] was 11.2 µM [rising, single point].

In the case of `COc1ccc(NC(=O)CN(Cc2ccccc2)S(C)(=O)=O)cc1OC`, the AC50 [1] is reported as 35.5 µM [rising, single point].

For `O=C(CNC(=S)N(Cc1ccccc1)Cc1cccnc1)NC1CCCC1`, the AC50 [2] was 10 µM [rising, partial curve].

With `Cc1cccc(NC(=O)Cn2nnc(C(=O)Nc3ccccc3Br)c2N)c1C` the AC50 [2] was 3.55 µM [rising, partial curve, poor fit].

In the case of `Cn1c(=O)c2c(nc3n2CCS3)n(C)c1=O`, the AC50 [2] is reported as 5.01 µM [falling, full curve, poor fit].

For `CCC(=O)c1cc(F)c(N2CCN(S(=O)(=O)c3ccc(C)cc3)CC2)cc1C`, the AC50 [1] was 5.62 µM [rising, partial curve] and the AC50 [2] was 20 µM [rising, partial curve].

With `CCc1cccc2c(C(=O)COC(=O)/C=C/c3ccccc3OC)c[nH]c12` the AC50 [2] was 2 µM [rising, partial curve, poor fit].

In the case of `Cc1ccc(/C=C/C(=O)NCCCc2ccccc2)cc1`, the AC50 [2] is reported as 35.5 µM [rising, single point].
